Assay results from patent publication US5760048A, “Alpha-mercaptoacrylic acid derivatives having calpain inhibitory activity” (Warner-Lambert Company, priority 1996, dated 1998).
For at least one compound, name, drawing or mass did not settle the structure.

System: spectrin breakdown in rat cortical cell cultures
Experiment: Spectrin Breakdown Measurement (immunoblot)
Format: cell-based
Conditions: NMDA-treated cortical cells, 4-hour post-NMDA
Description: Rat cortical cell cultures were treated with NMDA in the absence or presence of calpain inhibiting compounds as described in "Assay of LDH" above. At the end of the 4-hour post-NMDA incubation, cells were lysed with 300 μL buffer containing 20 mM Tris-HCL (pH 7.4 at 4° C.), 1% SDS, 5 mM EGTA, 5 mM EDTA, 1 mM DTT, and various protease inhibitors. Total cellular protein was precipitated by 100 μL of 100% trichloroacetic acid. The samples were centrifuged and the pelleted protein solubilized with 50 μl of 3M Tris base. […] The blots were then probed with rabbit antibrain spectrin antibody (primary antibody) followed by alkaline phosphatase-conjugated goat antirabbit immunoglobulin G antibody (secondary antibody). […] The SBP were quantified by densitometry (BioRad Model 620).

CN[C@H](CC(=O)O)C(=O)O [NMDA, N-methyl-D-aspartate, reference compound]
spectrin breakdown product (SBP) formation, 150 kDa and 145 kDa (in words): induced significant calpain-mediated formation of spectrin breakdown products
